Reference: PubChem BioAssay AID1159598 (NIAID, 2016)

Screen: 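Knock-downs that alter flagellin-driven TNF reporter signal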
Cells: human THP-1 B5 reporter cells made macrophage-like with PMA
Knock-down reagent: single siRNA against human genes
Time to read-out: reporter read 48 to 72 hours after siRNA transfection
Treatment: flagellin stimulation for 4 hours, dose not given
Read-out: 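TNF promoter firefly luciferase over renilla after 4 h flagellin, plate median/MAD scaled, robust z versus negative controls, mean of replicates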
Direction: TNF reporter z-score: higher = stronger TNF promoter activity than controls
Rule for the call: 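Active means the mean reporter z is about 1.5 or more, or about -1.5 or less; values closer to zero are inactive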
Calls: active = reporter shifted beyond 1.5 z, up or down; inactive = reporter within 1.5 z of controls
In all, the deposit lists 756 reagents; this is an unselected part. 142 of all reagents (19%) were called active. 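Active includes both higher and lower reporter signal; each gene has six separate siRNAs, and no gene-level summary is deposited.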 A number with no mark means an inactive call. The numbers tell different reagents against one gene apart. Not stated in the record: the amount of reagent.

The first 7 records, ahead of the listing:
| Target gene | siRNA no. | TNF reporter z-score |
| --- | --- | --- |
| DUSP1 (dual specificity phosphatase 1) | 1 | -0.138 |
| DUSP1 (dual specificity phosphatase 1) | 2 | -0.248 |
| DUSP1 (dual specificity phosphatase 1) | 3 | -0.0107 |
| DUSP1 (dual specificity phosphatase 1) | 4 | 1.18 |
| DUSP1 (dual specificity phosphatase 1) | 5 | -0.432 |
| DUSP1 (dual specificity phosphatase 1) | 6 | -0.0658 |
| IRAK4 (interleukin 1 receptor associated kinase 4) | 1 | -0.773 |

Results, from the start:
| Target gene | siRNA no. | TNF reporter z-score |
| --- | --- | --- |
| DUSP1 (dual specificity phosphatase 1) | 1 | -0.138 |
| DUSP1 (dual specificity phosphatase 1) | 2 | -0.248 |
| DUSP1 (dual specificity phosphatase 1) | 3 | -0.0107 |
| DUSP1 (dual specificity phosphatase 1) | 4 | 1.18 |
| DUSP1 (dual specificity phosphatase 1) | 5 | -0.432 |
| DUSP1 (dual specificity phosphatase 1) | 6 | -0.0658 |
| IRAK4 (interleukin 1 receptor associated kinase 4) | 1 | -0.773 |
| IRAK4 (interleukin 1 receptor associated kinase 4) | 2 | 0.405 |
| IRAK4 (interleukin 1 receptor associated kinase 4) | 3 | -0.698 |
| IRAK4 (interleukin 1 receptor associated kinase 4) | 4 | -0.977 |
| IRAK4 (interleukin 1 receptor associated kinase 4) | 5 | -0.226 |
| IRAK4 (interleukin 1 receptor associated kinase 4) | 6 | -0.124 |
| PTK2B (protein tyrosine kinase 2 beta) | 1 | -0.861 |
| PTK2B (protein tyrosine kinase 2 beta) | 2 | -1.92 (active) |
| PTK2B (protein tyrosine kinase 2 beta) | 3 | -0.837 |
| PTK2B (protein tyrosine kinase 2 beta) | 4 | -1.57 (active) |
| PTK2B (protein tyrosine kinase 2 beta) | 5 | -0.82 |
| PTK2B (protein tyrosine kinase 2 beta) | 6 | -0.926 |
| NFKBIE (NFKB inhibitor epsilon) | 1 | -1.83 (active) |
| NFKBIE (NFKB inhibitor epsilon) | 2 | -0.952 |
| NFKBIE (NFKB inhibitor epsilon) | 3 | -1.77 (active) |
| NFKBIE (NFKB inhibitor epsilon) | 4 | -1.99 (active) |
| NFKBIE (NFKB inhibitor epsilon) | 5 | -0.597 |
| NFKBIE (NFKB inhibitor epsilon) | 6 | -2.49 (active) |
| MAP2K4 (mitogen-activated protein kinase kinase 4) | 1 | -1.35 |
| MAP2K4 (mitogen-activated protein kinase kinase 4) | 2 | -1.22 |
| MAP2K4 (mitogen-activated protein kinase kinase 4) | 3 | 0.159 |
| MAP2K4 (mitogen-activated protein kinase kinase 4) | 4 | 0.634 |
| MAP2K4 (mitogen-activated protein kinase kinase 4) | 5 | -0.0755 |
| MAP2K4 (mitogen-activated protein kinase kinase 4) | 6 | -1.01 |
| IRAK3 (interleukin 1 receptor associated kinase 3) | 1 | -0.691 |
| IRAK3 (interleukin 1 receptor associated kinase 3) | 2 | -0.623 |
| IRAK3 (interleukin 1 receptor associated kinase 3) | 3 | -0.273 |
| IRAK3 (interleukin 1 receptor associated kinase 3) | 4 | 0.2 |
| IRAK3 (interleukin 1 receptor associated kinase 3) | 5 | -0.71 |
| IRAK3 (interleukin 1 receptor associated kinase 3) | 6 | 0.103 |
| MAP3K7 (mitogen-activated protein kinase kinase kinase 7) | 1 | -2.8 (active) |
| MAP3K7 (mitogen-activated protein kinase kinase kinase 7) | 2 | -2.65 (active) |
| MAP3K7 (mitogen-activated protein kinase kinase kinase 7) | 3 | -5.66 (active) |
| MAP3K7 (mitogen-activated protein kinase kinase kinase 7) | 4 | -2.28 (active) |
| MAP3K7 (mitogen-activated protein kinase kinase kinase 7) | 5 | -2.72 (active) |
| MAP3K7 (mitogen-activated protein kinase kinase kinase 7) | 6 | -2.98 (active) |
| NFKBIA (NFKB inhibitor alpha) | 1 | 0.0133 |
| NFKBIA (NFKB inhibitor alpha) | 2 | 0.322 |
| NFKBIA (NFKB inhibitor alpha) | 3 | -0.192 |
| NFKBIA (NFKB inhibitor alpha) | 4 | -1.92 (active) |
| NFKBIA (NFKB inhibitor alpha) | 5 | -2.35 (active) |
| NFKBIA (NFKB inhibitor alpha) | 6 | -0.683 |
| IFNAR1 (interferon alpha and beta receptor subunit 1) | 1 | -1.91 (active) |
| IFNAR1 (interferon alpha and beta receptor subunit 1) | 2 | -1.45 |
| IFNAR1 (interferon alpha and beta receptor subunit 1) | 3 | -0.442 |
| IFNAR1 (interferon alpha and beta receptor subunit 1) | 4 | -1.35 |
| IFNAR1 (interferon alpha and beta receptor subunit 1) | 5 | -0.988 |
| IFNAR1 (interferon alpha and beta receptor subunit 1) | 6 | 0.0464 |
| TAB1 (TGF-beta activated kinase 1 (MAP3K7) binding protein 1) | 1 | -1.03 |
| TAB1 (TGF-beta activated kinase 1 (MAP3K7) binding protein 1) | 2 | -2.63 (active) |
| TAB1 (TGF-beta activated kinase 1 (MAP3K7) binding protein 1) | 3 | -1.24 |
| TAB1 (TGF-beta activated kinase 1 (MAP3K7) binding protein 1) | 4 | -1.2 |
| TAB1 (TGF-beta activated kinase 1 (MAP3K7) binding protein 1) | 5 | -0.266 |
| TAB1 (TGF-beta activated kinase 1 (MAP3K7) binding protein 1) | 6 | -1.33 |
| TLR2 (toll like receptor 2) | 1 | 0.649 |
| TLR2 (toll like receptor 2) | 2 | -0.51 |
| TLR2 (toll like receptor 2) | 3 | -1.66 (active) |
| TLR2 (toll like receptor 2) | 4 | 1.56 (active) |
| TLR2 (toll like receptor 2) | 5 | -0.516 |
| TLR2 (toll like receptor 2) | 6 | 0.17 |
| IL1B (interleukin 1 beta) | 1 | -1.1 |
| IL1B (interleukin 1 beta) | 2 | -0.653 |
| IL1B (interleukin 1 beta) | 3 | -0.963 |
| IL1B (interleukin 1 beta) | 4 | -1.48 |
| IL1B (interleukin 1 beta) | 5 | -1.43 |
| IL1B (interleukin 1 beta) | 6 | -1.63 (active) |
| MAPK13 (mitogen-activated protein kinase 13) | 1 | -2.51 (active) |
| MAPK13 (mitogen-activated protein kinase 13) | 2 | -0.877 |
| MAPK13 (mitogen-activated protein kinase 13) | 3 | -1.96 (active) |
| MAPK13 (mitogen-activated protein kinase 13) | 4 | -1.05 |
| MAPK13 (mitogen-activated protein kinase 13) | 5 | -0.499 |
| MAPK13 (mitogen-activated protein kinase 13) | 6 | -0.688 |
| IL12B (interleukin 12B) | 1 | -1.69 (active) |
| IL12B (interleukin 12B) | 2 | -0.351 |
| IL12B (interleukin 12B) | 3 | -1.11 |
| IL12B (interleukin 12B) | 4 | -1.02 |
| IL12B (interleukin 12B) | 5 | -2.7 (active) |
| IL12B (interleukin 12B) | 6 | -1.41 |
| CYLD (CYLD lysine 63 deubiquitinase) | 1 | -1.22 |
| CYLD (CYLD lysine 63 deubiquitinase) | 2 | -0.613 |
| CYLD (CYLD lysine 63 deubiquitinase) | 3 | -1.17 |
| CYLD (CYLD lysine 63 deubiquitinase) | 4 | -0.418 |
| CYLD (CYLD lysine 63 deubiquitinase) | 5 | -0.972 |
| CYLD (CYLD lysine 63 deubiquitinase) | 6 | -1.31 |
| RELA (RELA proto-oncogene, NF-kB subunit) | 1 | -3.54 (active) |
| RELA (RELA proto-oncogene, NF-kB subunit) | 2 | -0.826 |
| RELA (RELA proto-oncogene, NF-kB subunit) | 3 | -1.42 |
| RELA (RELA proto-oncogene, NF-kB subunit) | 4 | -1.11 |
| RELA (RELA proto-oncogene, NF-kB subunit) | 5 | -0.0355 |
| RELA (RELA proto-oncogene, NF-kB subunit) | 6 | -2.61 (active) |
| MAP2K3 (mitogen-activated protein kinase kinase 3) | 1 | -0.373 |
| MAP2K3 (mitogen-activated protein kinase kinase 3) | 2 | -0.672 |
| MAP2K3 (mitogen-activated protein kinase kinase 3) | 3 | -1.71 (active) |
| MAP2K3 (mitogen-activated protein kinase kinase 3) | 4 | -2.08 (active) |
| MAP2K3 (mitogen-activated protein kinase kinase 3) | 5 | -0.768 |
| MAP2K3 (mitogen-activated protein kinase kinase 3) | 6 | -3.8 (active) |
| CXCL11 (C-X-C motif chemokine ligand 11) | 1 | -1.97 (active) |
| CXCL11 (C-X-C motif chemokine ligand 11) | 2 | -0.155 |
| CXCL11 (C-X-C motif chemokine ligand 11) | 3 | -0.126 |
| CXCL11 (C-X-C motif chemokine ligand 11) | 4 | -0.187 |
| CXCL11 (C-X-C motif chemokine ligand 11) | 5 | -0.143 |
| CXCL11 (C-X-C motif chemokine ligand 11) | 6 | -0.0658 |
| RIPK3 (receptor interacting serine/threonine kinase 3) | 1 | 0.368 |
| RIPK3 (receptor interacting serine/threonine kinase 3) | 2 | -0.302 |
| RIPK3 (receptor interacting serine/threonine kinase 3) | 3 | 0.575 |
| RIPK3 (receptor interacting serine/threonine kinase 3) | 4 | -0.624 |
| RIPK3 (receptor interacting serine/threonine kinase 3) | 5 | -0.239 |
| RIPK3 (receptor interacting serine/threonine kinase 3) | 6 | 0.0492 |
